# The other results are listed elsewhere or left out.
# Target: T1, OsSMF1 (Oryza sativa, UniProt Q6ZLB0 1-436)
# T1 sequence: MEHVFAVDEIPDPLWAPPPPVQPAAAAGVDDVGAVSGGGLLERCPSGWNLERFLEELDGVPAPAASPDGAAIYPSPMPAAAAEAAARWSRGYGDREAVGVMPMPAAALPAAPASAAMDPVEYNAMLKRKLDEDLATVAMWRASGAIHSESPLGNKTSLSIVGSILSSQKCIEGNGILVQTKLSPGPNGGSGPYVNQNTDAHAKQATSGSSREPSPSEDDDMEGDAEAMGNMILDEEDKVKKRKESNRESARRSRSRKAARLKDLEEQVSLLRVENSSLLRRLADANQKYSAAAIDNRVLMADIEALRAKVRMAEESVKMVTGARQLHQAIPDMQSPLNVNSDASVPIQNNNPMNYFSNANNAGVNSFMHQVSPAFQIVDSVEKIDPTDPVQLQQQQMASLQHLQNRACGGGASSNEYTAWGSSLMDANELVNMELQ
# Assay: protein-binding microarray (RPBM); PBS, 2% BSA, 51.3 ng/ul salmon testes DNA, 50 uM zinc acetate, 200 nM TF, 25 C, 1 h; high values mean tight binding
# Details: protein: recombinant; tags: N-terminal polyhistidine and DsRed monomer fusion (pET32a); chain copies: 2; label: CyDye5-dUTP incorporated in the synthesized complementary strand; 3' TTTTT single-stranded linker to array surface; dsDNA, one strand shown
# Outline: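 Binding signal is defined as the fluorescence intensity of each feature in arbitrary units, read on an Axon 4000B scanner. Transcription factors with N-terminal polyhistidine and DsRed fusions came from E. coli BL21-CodonPlus and were purified on Ni–NTA. They were incubated at 200 nM for 1 h at 25 °C on a custom Agilent array that had been made double-stranded with Cy5-dUTP, with 50 µM zinc acetate present, and the array was washed.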
row,Sequence,binding signal
1,CGCGACAAGCACAGGCACACGTGACTGAATTGGCATCCATCGGAGTCACCTAGTGCAG,4050 fluorescence intensity (a.u.)
2,TGTTTATGTTTATCTGATATGTACACGTTCTTATTTACATCGGAGTCACCTAGTGCAG,3880 fluorescence intensity (a.u.)
3,ACTAGCACACCGGTGCTGTCAGCTGATGGTCGATCGAGATCGGAGTCACCTAGTGCAG,3780 fluorescence intensity (a.u.)
4,ACCGCCTTTTCGCCTGTCTGTTTTATAACTCACCATTATACGGAGTCACCTAGTGCAG,23200 fluorescence intensity (a.u.)
5,AATTGACCCTTTCACTACCACATCATCAAAACCATCCATCCGGAGTCACCTAGTGCAG,4510 fluorescence intensity (a.u.)
6,AGGGAGTAGTTAAGTTGTTAAGCTAGTAAGAAAATACAGGCGGAGTCACCTAGTGCAG,3610 fluorescence intensity (a.u.)
7,CAGAACGTGTCACTGACGTGCGGGGCCAACCAAGCCCATGCGGAGTCACCTAGTGCAG,38300 fluorescence intensity (a.u.)
8,GAGCTGAGCGTCGCGTGCACCGAATCCCCGCACTGAACGCCGGAGTCACCTAGTGCAG,27600 fluorescence intensity (a.u.)
9,TCTTTGACAGAAGTACTTGCTCCTGTCATTTTCAGTGCTACGGAGTCACCTAGTGCAG,3450 fluorescence intensity (a.u.)
10,CAGCTACAGGACGGCAGTACCCAGTACACGCACGCGTACCCGGAGTCACCTAGTGCAG,3640 fluorescence intensity (a.u.)
11,CATATACACAGTTACACACATCATCTGGGATGCAACGGTACGGAGTCACCTAGTGCAG,3230 fluorescence intensity (a.u.)
12,CAATTATAATCACGTCAGGTATAGAGCGAGCGGTAGCAGACGGAGTCACCTAGTGCAG,16200 fluorescence intensity (a.u.)
13,CTCGTCGTCATCGTCCTCTTCTTCGTCCTCATCGTCGTCGCGGAGTCACCTAGTGCAG,4590 fluorescence intensity (a.u.)
14,GCTCACACAATGATGACGCCGAGTGCTGACTAGGGCTCCCCGGAGTCACCTAGTGCAG,9010 fluorescence intensity (a.u.)
15,CCTGATATTCAAAATGATAGGATGAATCAGCGTATAATTACGGAGTCACCTAGTGCAG,3560 fluorescence intensity (a.u.)
16,ATCTGTAGTTCTCTACTTAATAGAGTTGATCACTTAGGTTCGGAGTCACCTAGTGCAG,3440 fluorescence intensity (a.u.)
17,GTAAGCCACATGTCAACAAGGCACTGGGTGGCGTGCACCACGGAGTCACCTAGTGCAG,3180 fluorescence intensity (a.u.)
18,CACTTGATGTCTTTATTCCCTTTCAAACGTGTCAAAAGTCCGGAGTCACCTAGTGCAG,4240 fluorescence intensity (a.u.)
19,ATGCTATACGTCACATGAAGCCTCACGCCATCATGTACTGCGGAGTCACCTAGTGCAG,4560 fluorescence intensity (a.u.)
20,CATGGGCTTGAACTGGCTTTTGTGTATTTTGCAAGGCTTGCGGAGTCACCTAGTGCAG,3750 fluorescence intensity (a.u.)
21,TGACGACCGGTCGCCGTCGACGCGGCAGTCTTCGCCGGTGCGGAGTCACCTAGTGCAG,3250 fluorescence intensity (a.u.)

row,Sequence,binding signal
1,TCGTTGCATTCCCACGCGTATTTAACACAACACTTTTAATCGGAGTCACCTAGTGCAG,3430 fluorescence intensity (a.u.)
2,CGTATTAACCATTACACCTCATGTCCCAATTAATTTAACGCGGAGTCACCTAGTGCAG,4420 fluorescence intensity (a.u.)
3,ACGATGATGAAGTTCCAAAGCATGGTGAATCTGTTATAGGCGGAGTCACCTAGTGCAG,3230 fluorescence intensity (a.u.)
4,CTCGATCTCGCCGTCGACGACGTTGCTGCTGCTGGTGGTGCGGAGTCACCTAGTGCAG,3510 fluorescence intensity (a.u.)
5,TTATACAACTTTCTATGGATCTTCATGATGCTAACTTCCACGGAGTCACCTAGTGCAG,4700 fluorescence intensity (a.u.)
6,ACAGCATTACTACGCCATTGCTACGGTCATCATCAATCACCGGAGTCACCTAGTGCAG,5040 fluorescence intensity (a.u.)
7,GAGAATTTTGTAATTTGAATTGAGTAAATTTCATCATTAGCGGAGTCACCTAGTGCAG,28100 fluorescence intensity (a.u.)
8,CCCCATTGACATACACACAATATGTCATATATATTCATAACGGAGTCACCTAGTGCAG,5340 fluorescence intensity (a.u.)
9,ACGTGGTTCCCACGCTGACTCAGCTGCCACGTCGGACAAACGGAGTCACCTAGTGCAG,29000 fluorescence intensity (a.u.)
10,TTCAAATATATGTCCATATATCCGATGTGACAACGAAACCCGGAGTCACCTAGTGCAG,3330 fluorescence intensity (a.u.)
11,GGTGACCGTCGTCGGCGACGTGGACAGCAGGGTGCTCGTCCGGAGTCACCTAGTGCAG,3720 fluorescence intensity (a.u.)
12,CTCGAGACCTTCATGTTCTTCCTCATTCGCTGACACGTGGCGGAGTCACCTAGTGCAG,18200 fluorescence intensity (a.u.)
13,ACTTCTCGCTTCCGCTCCACGCCTCGCTGCCTGCCGCTCCCGGAGTCACCTAGTGCAG,3180 fluorescence intensity (a.u.)
14,CTGAGGCGGCCTGGGCGTCTTGGGCACGAAGACGCGCGTGCGGAGTCACCTAGTGCAG,29100 fluorescence intensity (a.u.)
15,TTATCCACATAAGCATAAATATGATGTGGCAATATATATACGGAGTCACCTAGTGCAG,6260 fluorescence intensity (a.u.)
16,AAATTATGTCATTTTGATCAACAGTTGGTACAGTAGTACACGGAGTCACCTAGTGCAG,48000 fluorescence intensity (a.u.)
17,TTAAAGTGTGGCTTTACCTTTTGTTAGCCACATAATCACGCGGAGTCACCTAGTGCAG,4340 fluorescence intensity (a.u.)
18,GGTGGTGGACTAGGTAACTTTTGCTTAATCCCTTCATATGCGGAGTCACCTAGTGCAG,3530 fluorescence intensity (a.u.)
19,AAAACCGGCGGCTGCCTCGCCAAAACCCAATGCAAGGACGCGGAGTCACCTAGTGCAG,21000 fluorescence intensity (a.u.)
20,ATGGAGGAAGGGGCTAGAAGAATGGTACTACTGGAAGGGACGGAGTCACCTAGTGCAG,3900 fluorescence intensity (a.u.)
21,ACGTAGACAAGACCACGATTAAACCAGACTTTAGACCAAGCGGAGTCACCTAGTGCAG,20000 fluorescence intensity (a.u.)

# Some of the entries so far, as tab-separated lines:
row	Sequence	binding signal
8	GAGCTGAGCGTCGCGTGCACCGAATCCCCGCACTGAACGCCGGAGTCACCTAGTGCAG	27600 fluorescence intensity (a.u.)
9	TCTTTGACAGAAGTACTTGCTCCTGTCATTTTCAGTGCTACGGAGTCACCTAGTGCAG	3450 fluorescence intensity (a.u.)
